Reference: the supplement of paper PMC6411743
± gives the standard deviation of the averaged measurements. This is a selection; strong and weak results do not stand in their true shares.

Amino acid sequences for entries named in this document (tags omitted). A change or cut given only in a name is not applied to a line headed by its entry.
UniProt Q6PK04: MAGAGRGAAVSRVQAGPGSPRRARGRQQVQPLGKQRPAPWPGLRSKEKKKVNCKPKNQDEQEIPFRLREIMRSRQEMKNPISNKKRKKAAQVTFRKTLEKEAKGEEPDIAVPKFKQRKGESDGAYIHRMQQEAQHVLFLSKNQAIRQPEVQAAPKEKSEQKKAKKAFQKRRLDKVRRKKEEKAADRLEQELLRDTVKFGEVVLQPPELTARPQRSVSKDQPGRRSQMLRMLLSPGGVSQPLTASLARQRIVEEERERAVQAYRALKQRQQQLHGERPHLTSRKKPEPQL
UniProt Q13569: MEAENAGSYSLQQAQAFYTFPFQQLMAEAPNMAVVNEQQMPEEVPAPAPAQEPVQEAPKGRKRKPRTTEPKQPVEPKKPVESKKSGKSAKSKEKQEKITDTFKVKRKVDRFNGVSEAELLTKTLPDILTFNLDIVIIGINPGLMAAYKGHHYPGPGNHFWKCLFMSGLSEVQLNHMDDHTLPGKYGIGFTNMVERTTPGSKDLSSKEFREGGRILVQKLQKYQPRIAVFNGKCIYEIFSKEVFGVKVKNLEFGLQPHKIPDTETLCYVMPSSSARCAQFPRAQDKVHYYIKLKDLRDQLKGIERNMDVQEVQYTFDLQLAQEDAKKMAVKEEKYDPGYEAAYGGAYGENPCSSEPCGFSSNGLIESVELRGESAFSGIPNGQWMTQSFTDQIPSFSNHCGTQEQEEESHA
UniProt Q08722, whole entry: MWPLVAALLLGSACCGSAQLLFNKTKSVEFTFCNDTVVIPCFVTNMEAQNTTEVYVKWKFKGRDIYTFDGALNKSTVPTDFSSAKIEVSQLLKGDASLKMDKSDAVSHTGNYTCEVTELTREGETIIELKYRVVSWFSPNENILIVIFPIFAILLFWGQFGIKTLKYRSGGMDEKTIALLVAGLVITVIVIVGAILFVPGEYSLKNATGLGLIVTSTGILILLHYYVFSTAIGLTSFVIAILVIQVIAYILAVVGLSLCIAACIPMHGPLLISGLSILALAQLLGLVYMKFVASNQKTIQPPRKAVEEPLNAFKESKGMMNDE
UniProt Q9HCN3: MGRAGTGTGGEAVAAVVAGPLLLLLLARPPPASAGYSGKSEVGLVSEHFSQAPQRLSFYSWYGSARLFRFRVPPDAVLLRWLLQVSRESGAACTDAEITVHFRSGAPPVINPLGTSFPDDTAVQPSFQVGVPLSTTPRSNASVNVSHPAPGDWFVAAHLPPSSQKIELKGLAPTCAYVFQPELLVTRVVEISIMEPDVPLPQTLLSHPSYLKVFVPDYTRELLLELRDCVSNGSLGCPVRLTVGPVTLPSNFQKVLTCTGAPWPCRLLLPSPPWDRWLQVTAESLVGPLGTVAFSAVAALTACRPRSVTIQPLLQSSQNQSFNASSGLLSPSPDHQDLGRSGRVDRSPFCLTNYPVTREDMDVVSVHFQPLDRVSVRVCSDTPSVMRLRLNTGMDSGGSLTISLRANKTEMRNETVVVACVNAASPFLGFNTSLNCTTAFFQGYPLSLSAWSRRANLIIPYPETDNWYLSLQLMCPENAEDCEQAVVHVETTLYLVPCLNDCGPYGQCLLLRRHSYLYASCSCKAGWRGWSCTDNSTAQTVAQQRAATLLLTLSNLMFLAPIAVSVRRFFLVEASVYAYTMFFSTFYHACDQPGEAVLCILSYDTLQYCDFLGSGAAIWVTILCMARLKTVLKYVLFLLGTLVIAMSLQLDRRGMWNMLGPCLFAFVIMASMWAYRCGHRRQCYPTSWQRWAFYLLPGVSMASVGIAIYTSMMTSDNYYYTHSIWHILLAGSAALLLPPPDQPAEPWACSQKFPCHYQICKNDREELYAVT
UniProt Q5SW79: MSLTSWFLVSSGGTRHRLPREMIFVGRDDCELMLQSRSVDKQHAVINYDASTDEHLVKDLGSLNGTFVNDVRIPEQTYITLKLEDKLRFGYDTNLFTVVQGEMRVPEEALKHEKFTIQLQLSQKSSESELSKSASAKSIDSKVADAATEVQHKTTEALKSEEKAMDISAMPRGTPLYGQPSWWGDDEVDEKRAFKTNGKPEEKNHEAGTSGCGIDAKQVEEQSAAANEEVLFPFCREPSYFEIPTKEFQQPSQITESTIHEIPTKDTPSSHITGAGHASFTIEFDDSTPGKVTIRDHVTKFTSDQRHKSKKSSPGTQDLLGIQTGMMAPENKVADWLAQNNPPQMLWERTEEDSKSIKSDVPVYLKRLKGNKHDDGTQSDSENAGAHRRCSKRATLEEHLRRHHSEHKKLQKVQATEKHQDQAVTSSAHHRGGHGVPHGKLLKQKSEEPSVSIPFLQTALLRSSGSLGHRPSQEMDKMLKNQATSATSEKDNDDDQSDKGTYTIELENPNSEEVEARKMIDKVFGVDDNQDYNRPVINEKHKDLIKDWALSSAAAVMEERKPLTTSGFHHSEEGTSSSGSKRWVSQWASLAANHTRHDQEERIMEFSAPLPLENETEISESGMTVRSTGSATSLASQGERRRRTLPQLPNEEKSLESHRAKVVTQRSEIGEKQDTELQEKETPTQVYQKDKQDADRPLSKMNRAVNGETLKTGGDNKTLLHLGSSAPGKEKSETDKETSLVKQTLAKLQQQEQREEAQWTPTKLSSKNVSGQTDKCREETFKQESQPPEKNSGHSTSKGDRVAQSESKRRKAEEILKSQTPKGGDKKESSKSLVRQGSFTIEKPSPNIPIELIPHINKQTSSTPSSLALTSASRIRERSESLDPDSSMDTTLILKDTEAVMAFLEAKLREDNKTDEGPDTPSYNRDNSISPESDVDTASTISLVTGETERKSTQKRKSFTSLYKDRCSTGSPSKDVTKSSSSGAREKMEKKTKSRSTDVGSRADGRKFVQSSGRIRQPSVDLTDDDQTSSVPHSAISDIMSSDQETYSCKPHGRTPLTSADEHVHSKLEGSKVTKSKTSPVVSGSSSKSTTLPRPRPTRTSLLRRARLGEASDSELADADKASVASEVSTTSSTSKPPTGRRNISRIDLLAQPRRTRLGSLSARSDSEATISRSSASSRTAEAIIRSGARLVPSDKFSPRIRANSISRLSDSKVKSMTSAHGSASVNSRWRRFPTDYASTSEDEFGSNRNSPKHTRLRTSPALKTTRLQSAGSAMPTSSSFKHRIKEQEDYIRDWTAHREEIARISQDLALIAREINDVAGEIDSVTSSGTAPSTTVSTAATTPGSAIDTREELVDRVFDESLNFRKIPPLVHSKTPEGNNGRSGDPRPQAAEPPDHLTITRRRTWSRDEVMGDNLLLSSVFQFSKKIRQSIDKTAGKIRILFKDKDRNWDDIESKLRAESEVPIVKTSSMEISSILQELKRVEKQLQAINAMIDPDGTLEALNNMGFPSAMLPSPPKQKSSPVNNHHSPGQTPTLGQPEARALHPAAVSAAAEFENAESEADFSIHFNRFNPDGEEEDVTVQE
UniProt Q9NZJ7, whole entry: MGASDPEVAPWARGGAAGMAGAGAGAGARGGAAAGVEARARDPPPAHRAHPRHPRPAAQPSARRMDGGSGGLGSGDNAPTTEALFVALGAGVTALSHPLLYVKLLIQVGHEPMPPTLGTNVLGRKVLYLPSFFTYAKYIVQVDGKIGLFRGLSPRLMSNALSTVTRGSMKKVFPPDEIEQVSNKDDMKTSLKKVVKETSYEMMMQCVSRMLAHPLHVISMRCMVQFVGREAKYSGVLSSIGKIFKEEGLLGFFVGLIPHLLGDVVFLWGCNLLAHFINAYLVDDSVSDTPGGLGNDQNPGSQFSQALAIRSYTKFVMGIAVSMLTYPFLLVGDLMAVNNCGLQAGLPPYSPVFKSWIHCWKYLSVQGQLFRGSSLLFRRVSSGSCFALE
UniProt Q99611, whole entry: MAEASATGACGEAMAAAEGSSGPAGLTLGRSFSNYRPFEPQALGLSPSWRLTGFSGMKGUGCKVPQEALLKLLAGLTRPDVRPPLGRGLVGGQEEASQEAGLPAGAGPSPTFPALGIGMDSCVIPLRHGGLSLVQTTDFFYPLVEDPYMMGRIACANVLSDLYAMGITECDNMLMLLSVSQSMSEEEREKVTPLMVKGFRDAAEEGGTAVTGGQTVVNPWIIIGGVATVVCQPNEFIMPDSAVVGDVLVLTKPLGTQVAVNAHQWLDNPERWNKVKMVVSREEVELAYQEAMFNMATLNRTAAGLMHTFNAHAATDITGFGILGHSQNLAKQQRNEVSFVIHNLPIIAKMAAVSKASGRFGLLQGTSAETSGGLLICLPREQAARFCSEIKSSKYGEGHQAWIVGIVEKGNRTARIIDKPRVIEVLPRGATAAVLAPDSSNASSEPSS
UniProt Q6NW29: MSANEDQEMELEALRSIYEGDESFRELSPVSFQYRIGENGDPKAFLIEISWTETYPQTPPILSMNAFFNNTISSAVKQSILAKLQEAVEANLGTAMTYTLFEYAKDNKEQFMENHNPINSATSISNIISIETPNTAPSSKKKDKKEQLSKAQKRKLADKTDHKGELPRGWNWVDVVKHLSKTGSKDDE
UniProt Q9NXE4: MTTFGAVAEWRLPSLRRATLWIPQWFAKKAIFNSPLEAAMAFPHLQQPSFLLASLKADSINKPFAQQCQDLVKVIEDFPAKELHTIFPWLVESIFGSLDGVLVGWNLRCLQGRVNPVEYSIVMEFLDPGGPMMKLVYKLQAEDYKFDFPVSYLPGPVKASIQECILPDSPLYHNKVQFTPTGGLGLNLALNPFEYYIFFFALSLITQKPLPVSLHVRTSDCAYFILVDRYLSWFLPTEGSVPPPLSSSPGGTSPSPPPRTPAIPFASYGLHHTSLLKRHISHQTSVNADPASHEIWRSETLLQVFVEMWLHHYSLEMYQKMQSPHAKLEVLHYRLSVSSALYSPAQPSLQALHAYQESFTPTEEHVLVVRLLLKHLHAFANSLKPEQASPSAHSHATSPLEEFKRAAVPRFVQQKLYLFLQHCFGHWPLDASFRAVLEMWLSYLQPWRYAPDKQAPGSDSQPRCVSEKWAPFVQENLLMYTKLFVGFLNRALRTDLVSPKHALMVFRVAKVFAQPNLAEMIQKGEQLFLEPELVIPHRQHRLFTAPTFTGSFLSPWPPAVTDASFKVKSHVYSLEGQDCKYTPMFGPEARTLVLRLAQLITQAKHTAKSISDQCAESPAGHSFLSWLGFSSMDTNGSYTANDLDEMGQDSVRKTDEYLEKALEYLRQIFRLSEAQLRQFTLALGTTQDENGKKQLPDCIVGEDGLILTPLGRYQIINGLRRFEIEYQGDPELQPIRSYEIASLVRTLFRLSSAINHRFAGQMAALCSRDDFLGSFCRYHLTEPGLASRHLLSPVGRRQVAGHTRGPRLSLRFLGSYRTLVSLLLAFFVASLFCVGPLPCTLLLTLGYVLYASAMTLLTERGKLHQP
UniProt P09493, whole entry: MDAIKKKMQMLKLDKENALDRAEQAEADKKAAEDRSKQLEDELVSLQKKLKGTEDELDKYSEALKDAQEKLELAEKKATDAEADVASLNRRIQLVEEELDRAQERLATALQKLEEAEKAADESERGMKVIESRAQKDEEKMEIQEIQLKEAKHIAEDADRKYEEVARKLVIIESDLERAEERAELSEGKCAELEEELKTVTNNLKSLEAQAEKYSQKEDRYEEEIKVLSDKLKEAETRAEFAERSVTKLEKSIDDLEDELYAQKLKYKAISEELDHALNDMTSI
UniProt P67812: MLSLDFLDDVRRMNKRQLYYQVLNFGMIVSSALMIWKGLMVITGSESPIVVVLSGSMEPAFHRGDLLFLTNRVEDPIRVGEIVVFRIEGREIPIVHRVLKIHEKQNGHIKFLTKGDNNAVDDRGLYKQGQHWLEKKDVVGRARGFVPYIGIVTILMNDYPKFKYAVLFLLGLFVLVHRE
UniProt P63241: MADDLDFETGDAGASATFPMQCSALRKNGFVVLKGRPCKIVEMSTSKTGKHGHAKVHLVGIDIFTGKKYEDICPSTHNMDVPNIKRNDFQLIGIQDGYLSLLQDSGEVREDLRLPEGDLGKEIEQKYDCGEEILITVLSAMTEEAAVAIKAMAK
UniProt P49848, whole entry: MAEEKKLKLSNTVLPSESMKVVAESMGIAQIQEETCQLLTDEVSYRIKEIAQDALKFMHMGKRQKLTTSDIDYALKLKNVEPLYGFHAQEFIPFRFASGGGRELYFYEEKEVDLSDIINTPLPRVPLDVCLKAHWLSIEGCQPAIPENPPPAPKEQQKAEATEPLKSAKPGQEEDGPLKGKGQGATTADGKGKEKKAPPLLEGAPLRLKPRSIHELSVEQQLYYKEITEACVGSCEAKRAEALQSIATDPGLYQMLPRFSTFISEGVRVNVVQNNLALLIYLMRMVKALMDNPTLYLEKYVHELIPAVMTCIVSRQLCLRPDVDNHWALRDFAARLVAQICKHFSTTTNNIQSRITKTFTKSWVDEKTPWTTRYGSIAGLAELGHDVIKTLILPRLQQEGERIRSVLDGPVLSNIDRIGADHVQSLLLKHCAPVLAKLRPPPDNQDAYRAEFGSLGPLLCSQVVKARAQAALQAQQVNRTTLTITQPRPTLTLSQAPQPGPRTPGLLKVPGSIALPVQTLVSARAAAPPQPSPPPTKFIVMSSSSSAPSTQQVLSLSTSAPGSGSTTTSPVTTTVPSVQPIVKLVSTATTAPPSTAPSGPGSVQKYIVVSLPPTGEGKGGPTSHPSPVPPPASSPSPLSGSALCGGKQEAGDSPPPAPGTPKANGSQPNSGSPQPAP

Compound: Nc1ncnc2c1ncn2[C@@H]1O[C@H](COP(=O)(O)OP(=O)(O)OP(=O)(O)O)[C@@H](O)[C@H]1O [adenosine triphosphate]
Assay: NP40-soluble protein abundance relative to vehicle (solubility fold change) (ratio); higher = more soluble protein in presence of ATP
In short: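 Data come from three independent experiments in which Dounce-homogenised Jurkat crude lysate was treated at eight concentrations from 0.1 to 10 mM. Treatment ran 10 min at room temperature and then 3 min at 37 °C, after which 0.8% NP40 and benzonase were added for 60 min at 4 °C before ultracentrifugation. The supernatant underwent TMT labelling and LC-MS/MS, and vsn-normalised intensities were expressed as fold change against the detergent-processed vehicle in each replicate.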

Row | Target | NP40-soluble protein abundance (concentration: 1mM) | NP40-soluble protein abundance (concentration: 2mM) | NP40-soluble protein abundance (concentration: 4mM) | NP40-soluble protein abundance (concentration: 6mM) | NP40-soluble protein abundance (concentration: 8mM) | NP40-soluble protein abundance (concentration: 10mM)
1 | I3L0U5 and related entries (UniProt Q6PK04) | 0.887 ± 0.16 | 0.869 ± 0.13 | 0.93 ± 0.073 | 1 ± 0.093 | 1.03 ± 0.071 | 1.06 ± 0.11
2 | J3QQ67 and related entries (UniProt Q07020) | 1.05 ± 0.12 | 0.995 ± 0.17 | 1.01 ± 0.2 | 0.909 ± 0.18 | 0.847 ± 0.16 | 1.04 ± 0.18
3 | G8JL98 and related entries (UniProt Q13569) | 0.9947 ± 0.0047 | 1.03 ± 0.013 | 1 ± 0.046 | 1.01 ± 0.034 | 0.996 ± 0.04 | 1.04 ± 0.04
4 | H0YC40 and related entries (UniProt Q08722) | 0.909 ± 0.023 | 0.886 ± 0.035 | 0.905 ± 0.045 | 0.925 ± 0.015 | 0.872 ± 0.043 | 0.835 ± 0.078
5 | I3L4X7 and related entries (UniProt Q13227) | 1.01 ± 0.081 | 0.983 ± 0.064 | 0.984 ± 0.084 | 1.03 ± 0.059 | 1 ± 0.046 | 1.02 ± 0.049
6 | UniProt H7C1Q1 | 1.03 ± 0.014 | 1.026 ± 0.006 | 1.06 ± 0.018 | 1.01 ± 0.13 | 0.943 ± 0.057 | 1.07 ± 0.032
7 | H7C560 and related entries (UniProt P15056) | 1.06 ± 0.041 | 1.06 ± 0.027 | 1.01 ± 0.059 | 1.02 ± 0.045 | 1.05 ± 0.058 | 1.01 ± 0.083
8 | K4DI83 and related entries (UniProt Q9HCN3) | 1.04 ± 0.11 | 0.966 ± 0.12 | 1.06 ± 0.14 | 1.01 ± 0.16 | 0.963 ± 0.09 | 0.922 ± 0.13
9 | H0YJI2 and related entries (UniProt Q15643) | 0.974 ± 0.041 | 0.974 ± 0.045 | 0.958 ± 0.034 | 0.994 ± 0.042 | 0.942 ± 0.028 | 0.951 ± 0.018
10 | J3QQK6 and related entries (UniProt P02686) | 0.772 ± 0.07 | 0.771 ± 0.027 | 0.746 ± 0.058 | 0.731 ± 0.049 | 0.686 ± 0.025 | 0.668 ± 0.078
11 | H0Y4T4 and related entries (UniProt Q5SW79) | 1.07 ± 0.048 | 1.09 ± 0.065 | 1.11 ± 0.055 | 1.19 ± 0.12 | 1.13 ± 0.05 | 1.18 ± 0.055
12 | H0Y8C3 and related entries (UniProt Q9NZJ7) | 0.954 ± 0.058 | 0.911 ± 0.075 | 0.918 ± 0.031 | 0.901 ± 0.047 | 0.899 ± 0.081 | 0.954 ± 0.049
13 | J3KR58 and related entries (UniProt Q99611) | 1.02 ± 0.016 | 1.02 ± 0.055 | 0.992 ± 0.066 | 0.964 ± 0.016 | 0.995 ± 0.067 | 1 ± 0.015
14 | K4DI92 and related entries (UniProt Q6NW29) | 0.904 ± 0.05 | 0.9555 ± 0.0089 | 0.916 ± 0.014 | 0.9147 ± 0.0066 | 0.894 ± 0.035 | 0.89 ± 0.046
15 | H0YEH1 and related entries (UniProt Q13492) | 0.9472 ± 0.0032 | 0.92 ± 0.011 | 0.925 ± 0.028 | 0.919 ± 0.014 | 0.901 ± 0.048 | 0.928 ± 0.062
16 | H1UBN3 and related entries (UniProt O95067+H1UBN3) | 0.974 ± 0.059 | 1.01 ± 0.11 | 0.986 ± 0.12 | 1.04 ± 0.035 | 1.09 ± 0.014 | 1.09 ± 0.032
17 | H0YE91 and related entries (UniProt Q15782) | 1.12 ± 0.08 | 1.13 ± 0.12 | 1.11 ± 0.084 | 1.15 ± 0.19 | 1.14 ± 0.16 | 1.14 ± 0.16
18 | H9KV84 and related entries (UniProt Q6ZTU2) | 0.868 ± 0.074 | 0.955 ± 0.096 | 0.997 ± 0.038 | 0.953 ± 0.27 | 0.913 ± 0.0046 | 0.855 ± 0.14
19 | H7BYJ3 and related entries (UniProt O14578) | 0.996 ± 0.032 | 0.997 ± 0.026 | 0.991 ± 0.019 | 1.03 ± 0.016 | 0.998 ± 0.016 | 0.996 ± 0.018
20 | H7BXF4 and related entries (UniProt Q9NXE4) | 1.15 ± 0.24 | 1.07 ± 0.19 | 1.1 ± 0.17 | 1.04 ± 0.2 | 1.15 ± 0.14 | 1.14 ± 0.14
21 | H7BYY1 and related entries (UniProt P09493) | 1.04 ± 0.052 | 1.01 ± 0.11 | 1.07 ± 0.1 | 1.13 ± 0.062 | 1.28 ± 0.2 | 0.904 ± 0.35
22 | H3BNF9 and related entries (UniProt Q9Y2V0) | 0.916 ± 0.014 | 0.962 ± 0.085 | 0.935 ± 0.022 | 0.9479 ± 0.0044 | 0.946 ± 0.037 | 0.9143 ± 0.0013
23 | I3L2B0 and related entries (UniProt O75153) | 0.995 ± 0.055 | 0.999 ± 0.037 | 0.987 ± 0.047 | 0.972 ± 0.054 | 0.981 ± 0.03 | 0.983 ± 0.049
24 | H0YNG3 and related entries (UniProt P67812) | 1.05 ± 0.12 | 1.02 ± 0.088 | 1.03 ± 0.072 | 0.942 ± 0.14 | 1.04 ± 0.064 | 0.988 ± 0.046
25 | J3QLS3 and related entries (UniProt Q9Y2R9) | 0.985 ± 0.1 | 0.888 ± 0.071 | 0.931 ± 0.12 | 0.92 ± 0.18 | 0.952 ± 0.13 | 0.816 ± 0.12
26 | J3KNF4 and related entries (UniProt O14618) | 0.962 ± 0.012 | 0.944 ± 0.017 | 0.933 ± 0.04 | 0.975 ± 0.028 | 0.934 ± 0.079 | 0.92 ± 0.048
27 | H3BUJ7 and related entries (UniProt Q66K89) | 0.963 ± 0.21 | 1.02 ± 0.024 | 1.1 ± 0.13 | 0.946 ± 0.12 | 1.14 ± 0.17 | 1.13 ± 0.029
28 | H9KV77 and related entries (UniProt Q9NQ92) | 0.985 ± 0.22 | 0.893 ± 0.093 | 0.927 ± 0.13 | 0.845 ± 0.085 | 0.967 ± 0.087 | 0.886 ± 0.021
29 | I3L397 and related entries (UniProt P63241) | 0.89 ± 0.1 | 0.875 ± 0.1 | 0.852 ± 0.089 | 0.86 ± 0.13 | 0.869 ± 0.1 | 0.866 ± 0.12
30 | J3KR72 and related entries (UniProt P49848) | 1.09 ± 0.072 | 1.07 ± 0.051 | 1.07 ± 0.043 | 1.18 ± 0.15 | 1.11 ± 0.083 | 1.11 ± 0.037

A run of entries of the results above, for reference:
Row | Target | NP40-soluble protein abundance (concentration: 1mM) | NP40-soluble protein abundance (concentration: 2mM) | NP40-soluble protein abundance (concentration: 4mM) | NP40-soluble protein abundance (concentration: 6mM) | NP40-soluble protein abundance (concentration: 8mM) | NP40-soluble protein abundance (concentration: 10mM)
16 | H1UBN3 and related entries (UniProt O95067+H1UBN3) | 0.974 ± 0.059 | 1.01 ± 0.11 | 0.986 ± 0.12 | 1.04 ± 0.035 | 1.09 ± 0.014 | 1.09 ± 0.032
17 | H0YE91 and related entries (UniProt Q15782) | 1.12 ± 0.08 | 1.13 ± 0.12 | 1.11 ± 0.084 | 1.15 ± 0.19 | 1.14 ± 0.16 | 1.14 ± 0.16
18 | H9KV84 and related entries (UniProt Q6ZTU2) | 0.868 ± 0.074 | 0.955 ± 0.096 | 0.997 ± 0.038 | 0.953 ± 0.27 | 0.913 ± 0.0046 | 0.855 ± 0.14
19 | H7BYJ3 and related entries (UniProt O14578) | 0.996 ± 0.032 | 0.997 ± 0.026 | 0.991 ± 0.019 | 1.03 ± 0.016 | 0.998 ± 0.016 | 0.996 ± 0.018
20 | H7BXF4 and related entries (UniProt Q9NXE4) | 1.15 ± 0.24 | 1.07 ± 0.19 | 1.1 ± 0.17 | 1.04 ± 0.2 | 1.15 ± 0.14 | 1.14 ± 0.14
21 | H7BYY1 and related entries (UniProt P09493) | 1.04 ± 0.052 | 1.01 ± 0.11 | 1.07 ± 0.1 | 1.13 ± 0.062 | 1.28 ± 0.2 | 0.904 ± 0.35
22 | H3BNF9 and related entries (UniProt Q9Y2V0) | 0.916 ± 0.014 | 0.962 ± 0.085 | 0.935 ± 0.022 | 0.9479 ± 0.0044 | 0.946 ± 0.037 | 0.9143 ± 0.0013
